Plain letter strings leave the end groups untold.
Experiment: peptide synthesis
Details: cyclisation step

Row | Substance | cyclisation yield
1 | GLPVCGETCVGGTCNTPGCTCSWPVCTRN* | <10%

Same assay, conditions: cyclisation step, head-to-tail ring, sequence written open

Row | Substance | cyclisation yield
2 | GADSHAKRHHGYKRKFHEKHHSHRGYRSNYLYDNHV | 90%
3 | SLPPPIFNHV | 50%
4 | HLPPPIFNHV | 50%
5 | SADSHEKRHHGYRRKFHEKHHSHREFPFYGDYGSNYLYDNHV | 90%
6 | GLPDSHEKRHHGYRRKFHEKHHSHREFPFYGDYGSNYLYDNHV | 90%
7 | GLPVCGETCVGGTCNTPGCTCSWPVCTRAHV | <1%
8 | GRCTKSIPPICFPDHV | <10%
9 | EINSTEINHV | 20%
10 | GLPVCGETCVGGTCNTPGCTCSWPVCTRNHVIA | >95%
11 | GLPVCGETCVGGTCNTPGCTCSWPVCTRNHV | >95%
12 | GLPVCGETCVGGTCNTPGCTCSWPVCTRNHVI | >95%
13 | GLPVCGETCVGGTCNTPGCTCSWPVCTRNH | <5%
14 | GLDSHAKRHHGYKRKFHEKHHSHRGYRSNYLYDNHV | 90%
15 | GLPVCGETCVGGTCNTPGCTCSWPVCTREHV | <1%
16 | GLPVCGETCVGGTCNTPGCTCSWPVCTRQHV | <1%
17 | GRCTKSIPPICFPNHV | >95%
18 | GLPPPIFNHV | 50%
19 | RVTRPVNHV | 20%
20 | GGLPVCGETCVGGTCNTPGCTCSWPVCTRDHV | <10%
